Results are given in words; binding and its absence hold for the method and conditions named. In cells and extracts the contact can be indirect. Some entries that bind do so weakly or less than the wild type.

Sequences of proteins named here, by UniProt entry; tags and fusion partners are left off.
UniProt Q01860: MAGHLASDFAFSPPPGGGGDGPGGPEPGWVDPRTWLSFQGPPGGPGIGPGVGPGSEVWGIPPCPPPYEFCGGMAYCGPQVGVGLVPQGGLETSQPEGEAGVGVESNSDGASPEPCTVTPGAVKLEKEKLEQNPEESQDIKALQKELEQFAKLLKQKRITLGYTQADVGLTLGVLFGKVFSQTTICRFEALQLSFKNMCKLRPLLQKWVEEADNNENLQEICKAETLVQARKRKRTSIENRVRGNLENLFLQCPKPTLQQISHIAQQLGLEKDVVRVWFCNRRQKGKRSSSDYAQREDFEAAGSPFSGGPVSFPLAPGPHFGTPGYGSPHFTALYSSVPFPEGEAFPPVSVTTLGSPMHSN
UniProt O75376: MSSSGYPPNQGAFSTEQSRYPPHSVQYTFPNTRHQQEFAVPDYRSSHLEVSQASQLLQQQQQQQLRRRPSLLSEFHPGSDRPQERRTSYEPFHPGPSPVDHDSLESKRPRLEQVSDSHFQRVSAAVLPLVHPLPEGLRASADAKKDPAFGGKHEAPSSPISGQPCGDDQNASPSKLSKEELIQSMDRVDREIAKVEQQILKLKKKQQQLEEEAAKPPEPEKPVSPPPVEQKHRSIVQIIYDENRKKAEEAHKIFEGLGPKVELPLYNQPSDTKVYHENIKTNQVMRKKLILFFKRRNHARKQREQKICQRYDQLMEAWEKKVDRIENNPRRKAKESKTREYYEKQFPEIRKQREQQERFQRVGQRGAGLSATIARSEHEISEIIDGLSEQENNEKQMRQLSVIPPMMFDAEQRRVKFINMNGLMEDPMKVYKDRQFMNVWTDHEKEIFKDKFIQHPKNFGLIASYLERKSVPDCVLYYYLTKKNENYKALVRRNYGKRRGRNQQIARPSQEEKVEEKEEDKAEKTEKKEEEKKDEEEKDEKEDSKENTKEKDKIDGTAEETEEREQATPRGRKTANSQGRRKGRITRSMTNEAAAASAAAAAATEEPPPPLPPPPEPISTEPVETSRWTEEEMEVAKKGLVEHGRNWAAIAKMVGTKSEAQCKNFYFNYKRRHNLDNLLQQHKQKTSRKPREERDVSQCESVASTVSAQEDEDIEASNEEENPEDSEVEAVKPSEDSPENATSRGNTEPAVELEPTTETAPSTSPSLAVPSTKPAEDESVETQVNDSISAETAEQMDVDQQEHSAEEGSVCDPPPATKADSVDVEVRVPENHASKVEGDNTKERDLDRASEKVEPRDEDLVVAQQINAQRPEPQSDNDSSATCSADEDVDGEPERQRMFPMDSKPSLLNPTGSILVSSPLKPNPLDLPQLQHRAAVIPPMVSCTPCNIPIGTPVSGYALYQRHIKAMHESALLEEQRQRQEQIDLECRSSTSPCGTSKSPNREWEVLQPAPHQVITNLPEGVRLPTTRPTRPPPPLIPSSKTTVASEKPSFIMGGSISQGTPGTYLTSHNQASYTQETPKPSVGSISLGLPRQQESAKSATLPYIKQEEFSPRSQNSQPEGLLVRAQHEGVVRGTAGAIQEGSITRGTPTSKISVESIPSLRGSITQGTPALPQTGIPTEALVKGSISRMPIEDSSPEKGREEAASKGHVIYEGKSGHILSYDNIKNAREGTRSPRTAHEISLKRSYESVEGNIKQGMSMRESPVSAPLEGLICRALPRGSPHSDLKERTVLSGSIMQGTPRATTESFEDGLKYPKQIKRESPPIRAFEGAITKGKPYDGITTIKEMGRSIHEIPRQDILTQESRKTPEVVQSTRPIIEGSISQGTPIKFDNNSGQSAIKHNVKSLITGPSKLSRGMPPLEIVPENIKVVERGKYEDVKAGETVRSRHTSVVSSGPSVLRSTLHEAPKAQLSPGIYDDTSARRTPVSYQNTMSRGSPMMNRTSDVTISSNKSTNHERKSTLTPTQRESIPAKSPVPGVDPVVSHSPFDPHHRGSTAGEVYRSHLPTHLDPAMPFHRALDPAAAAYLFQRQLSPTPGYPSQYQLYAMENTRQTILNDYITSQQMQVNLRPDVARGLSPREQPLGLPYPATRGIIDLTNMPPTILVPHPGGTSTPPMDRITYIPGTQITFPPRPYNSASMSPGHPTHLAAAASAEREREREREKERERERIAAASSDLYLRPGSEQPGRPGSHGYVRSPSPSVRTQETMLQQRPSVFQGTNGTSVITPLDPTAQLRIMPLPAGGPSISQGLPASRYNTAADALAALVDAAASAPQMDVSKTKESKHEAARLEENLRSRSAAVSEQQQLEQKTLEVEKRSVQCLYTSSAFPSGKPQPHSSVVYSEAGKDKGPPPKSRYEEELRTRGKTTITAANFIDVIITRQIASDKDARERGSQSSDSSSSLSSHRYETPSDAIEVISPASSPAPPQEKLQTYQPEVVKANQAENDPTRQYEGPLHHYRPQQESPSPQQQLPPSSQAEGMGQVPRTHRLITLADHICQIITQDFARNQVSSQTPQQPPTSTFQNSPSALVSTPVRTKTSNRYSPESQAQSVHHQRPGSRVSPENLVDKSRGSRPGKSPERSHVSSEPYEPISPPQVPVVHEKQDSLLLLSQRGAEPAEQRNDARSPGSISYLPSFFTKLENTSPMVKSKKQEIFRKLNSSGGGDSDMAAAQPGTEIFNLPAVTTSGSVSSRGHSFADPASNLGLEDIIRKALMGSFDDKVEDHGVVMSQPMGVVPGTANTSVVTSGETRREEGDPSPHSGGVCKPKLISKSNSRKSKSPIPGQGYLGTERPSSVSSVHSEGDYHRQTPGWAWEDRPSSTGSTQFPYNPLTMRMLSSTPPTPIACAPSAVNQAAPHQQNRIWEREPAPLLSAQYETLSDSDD

This test concerns the target Octamer-binding transcription factor 4 (OCT4) (UniProt Q01860). Nature of the test: co-IP; SiHa lysate (50 mM Tris-HCl, 150 mM NaCl, 1% NP-40, 2 mM EDTA, protease inhibitors), 800 ug protein incubated with Flag magnetic beads overnight at 4°C, rinsed with PBS; Western blot with anti-Flag, OCT4 or NCOR1 antibodies.

On to NCOR1 (from UniProt O75376 1-2440), for which the binding result was “binds”.

The values are drawn from publication PMC9302044.
